Marks after values point to notes of the source that are not given here.
Experiments:
in vivo = settings: oral, after a fast, 4-week old mouse, medium DMSO, read-out: Toxicity (LD50)
Method: After a fast, a ddy-mouse (4-week old) was orally given a solution obtained by dissolving and/or suspending the compound in each Example 18, 19 and 20 in dimethylsulfoxide (DMSO) or carboxymethylcellulose (CMC). The value of LD50 was calculated from the mortality.

[1] = tested on: spontaneously hypertensive rats; test: Antihypertensive action regarding administration amount, tail-cuff method; type: in vivo; settings: time for recovery to 50 % of maximal effect (index of persistence); oral dose 10 mg/kg
Method: Ten spontaneously hypertensive rats (10 - 20 week old) were used for this test. Blood pressure was measured in accordance with tail-cuff method by employing a blood pressure gauge for small animals UR-1000 (manufactured by Ueda Works, Ltd., Japan). […] The amount of each compound required for lowering the blood pressure of 40 mmHg decrease in blood pressure was calculated from the relationship between the administration amount and the blood pressure after adiministration (lowermost blood pressure). This amount was defined as ED-40 mmHg for serving as an index of antihypertensive action. Tz was shown as the time required for recovery to 50 % of maximal […]. This value was used for an index of persistence.

COC(=O)C1=C(C)NC(C)=C(C(=O)OC)C1c1ccccc1[N+](=O)[O-] [Nifedipine, nifedipine, reference compound]
LD50 (in vivo): 100 mg/kg
T1/2(dose) [1]: 4.0 hr(10mg/kg)*
